No constants are given. Whether binding was seen depends on the method and setting. Binding calls can cover weak binding; strength is not graded here.
Biological target: modified human PD-1 protein M1 (human)
Experiment: flow cytometry, transiently transfected HeLa cells [M1]

B1: 137F2 (antibody, V domains shown)
VH: QVQLQQPGAELVRPGTSVKMSCKAAGYTFTNYWIGWIKQRPGHGLEWIGDIYPGGGYTNYNEKFKGKATLTADTSSSTAYMQVSSLTSEDTGIYYCARGYDFVLDRWGQGTSVTVSS
VL: DIVMSQSPSSLAVSTGEKVTMTCKSSQSLFNSETQKNYLAWYQQKPGQPPKLLIFWASTRESGVPDRFLGSGSGTDFTLTISSVQAEDLAVYYCKQSYTLRTFGGGTKLEIK
For B1, the binding was “binds”.

— US20180265582A1
